Patent US20200278350A1
These are yes or no findings as the source states them, for the method shown. Some entries that bind do so weakly or less than the wild type.

Tests used:
[1] = molecular target: T1, proteolytically cleaved extracellular fragments of PTPµ (human) (UniProt P28827); test: fluorescent peptide staining of FFPE human glioma tissue microarrays and slides
T1 sequence: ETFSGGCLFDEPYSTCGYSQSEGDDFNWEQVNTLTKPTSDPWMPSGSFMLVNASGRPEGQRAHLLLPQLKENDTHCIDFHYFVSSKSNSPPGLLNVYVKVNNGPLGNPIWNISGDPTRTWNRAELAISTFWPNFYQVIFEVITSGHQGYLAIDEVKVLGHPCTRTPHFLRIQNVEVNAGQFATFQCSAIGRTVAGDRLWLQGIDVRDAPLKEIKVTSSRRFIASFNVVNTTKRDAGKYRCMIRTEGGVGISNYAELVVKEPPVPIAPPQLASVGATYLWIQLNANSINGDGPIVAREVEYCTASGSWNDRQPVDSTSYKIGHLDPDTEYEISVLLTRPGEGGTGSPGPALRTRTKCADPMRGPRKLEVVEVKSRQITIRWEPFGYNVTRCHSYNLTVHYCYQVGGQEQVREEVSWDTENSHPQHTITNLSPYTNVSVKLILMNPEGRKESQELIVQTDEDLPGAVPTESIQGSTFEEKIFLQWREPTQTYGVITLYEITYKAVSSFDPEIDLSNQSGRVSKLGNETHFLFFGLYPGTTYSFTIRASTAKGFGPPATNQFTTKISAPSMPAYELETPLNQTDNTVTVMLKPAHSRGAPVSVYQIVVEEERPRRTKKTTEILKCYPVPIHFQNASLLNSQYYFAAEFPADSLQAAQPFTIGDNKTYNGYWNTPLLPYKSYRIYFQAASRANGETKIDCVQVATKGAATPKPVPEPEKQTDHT

[2] = molecular target: T1, proteolytically cleaved extracellular fragments of PTPµ (human); test: fluorescent peptide staining of FFPE human gynecologic cancer tissue microarrays
[3] = molecular target: T1, proteolytically cleaved extracellular fragments of PTPµ (human); test: fluorescent peptide staining of matched patient tumor and PDX tissue microarray
[4] = molecular target: T1, proteolytically cleaved extracellular fragments of PTPµ (human); test: fluorescent peptide staining of FFPE tissue, quantified with Image J
[5] = molecular target: T1, proteolytically cleaved extracellular fragments of PTPµ (human); test: fluorescent peptide staining of FFPE human glioma tissue

Measured: binding

B1: SBK4 peptide conjugated to Texas Red (peptide)
peptide: GIDVRDAPLKEIKVTSSR
modifications: Texas Red coupled to the N-terminal glycine
binds: all assays above
